PubChem BioAssay AID1259405 | NCATS, 2018
Here is one part, drawn at random, of about 50,000 reagents. About 4,000 of all reagents (8%) count as active. 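Mouse siRNA library applied to hamster cells; one well for each siRNA.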 The numbers tell different reagents against one gene apart.

Assay: 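Knock-downs that lift recombinant protein yield in hamster ovary cells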 (primary screen)
Cell system: Chinese hamster CHO-K1 ovary cells with stable secreted eGFP expression
Reagents: single siRNA against mouse genes, 0.8 pmol siRNA per well (2 µl of 400 nM stock)
Duration: 3 days
Read-out: 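Per-well intracellular GFP measured by laser scanning cytometry, plus viability from ATP luminescence, each relative to plate median of non-targeting control wells, in %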
Direction: GFP, % of control: higher = more GFP per well, higher productivity; viability (ATP), % of control: higher = more viable cells (more ATP)
Call rule: 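Called active when intracellular GFP, relative to negative control, is at or above 120%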

gene,reagent,"GFP, % of control","viability (ATP), % of control",activity call
Slc20a2,1,101,82.2,inactive
Slc20a2,2,79.8,83.7,inactive
Slc20a2,3,83.9,58,inactive
Uts2r (urotensin 2 receptor),1,95.2,58.6,inactive
Uts2r (urotensin 2 receptor),2,44.2,33.3,inactive
Uts2r (urotensin 2 receptor),3,58.5,39.1,inactive
Bmerb1 (bMERB domain containing 1),1,49.1,41.5,inactive
Bmerb1 (bMERB domain containing 1),2,63.5,33.7,inactive
Bmerb1 (bMERB domain containing 1),3,88.5,85.9,inactive
Pik3r1 (phosphoinositide-3-kinase regulatory subunit 1),1,108,66.5,inactive
Pik3r1 (phosphoinositide-3-kinase regulatory subunit 1),2,74.5,75.8,inactive
Pik3r1 (phosphoinositide-3-kinase regulatory subunit 1),3,82.2,88.3,inactive
Erdr1x (erythroid differentiation regulator 1 x),1,69.4,74.4,inactive
Erdr1x (erythroid differentiation regulator 1 x),2,82.4,68.6,inactive
Erdr1x (erythroid differentiation regulator 1 x),3,87.2,55.9,inactive
Nup93 (nucleoporin 93),1,147,120,active
Nup93 (nucleoporin 93),2,103,122,inactive
Nup93 (nucleoporin 93),3,104,93.9,inactive
Nabp1 (nucleic acid binding protein 1),1,48.7,74.1,inactive
Nabp1 (nucleic acid binding protein 1),2,73.6,48,inactive
Nabp1 (nucleic acid binding protein 1),3,81.5,71.2,inactive
Mok (MOK protein kinase),1,55.5,54.7,inactive
Vmn1r78 (vomeronasal 1 receptor 78),1,145,99.5,active
Vmn1r78 (vomeronasal 1 receptor 78),2,66.4,67.6,inactive
Vmn1r78 (vomeronasal 1 receptor 78),3,61.2,48.3,inactive
Sparc (secreted acidic cysteine rich glycoprotein),1,70.9,41.4,inactive
Sparc (secreted acidic cysteine rich glycoprotein),2,93,84.7,inactive
Sparc (secreted acidic cysteine rich glycoprotein),3,82.6,78,inactive

Continued, starting with the last 6 of the part before.
gene,reagent,"GFP, % of control","viability (ATP), % of control",activity call
Vmn1r78 (vomeronasal 1 receptor 78),1,145,99.5,active
Vmn1r78 (vomeronasal 1 receptor 78),2,66.4,67.6,inactive
Vmn1r78 (vomeronasal 1 receptor 78),3,61.2,48.3,inactive
Sparc (secreted acidic cysteine rich glycoprotein),1,70.9,41.4,inactive
Sparc (secreted acidic cysteine rich glycoprotein),2,93,84.7,inactive
Sparc (secreted acidic cysteine rich glycoprotein),3,82.6,78,inactive
"Gimap8 (GTPase, IMAP family member 8)",1,96.1,92.5,inactive
"Gimap8 (GTPase, IMAP family member 8)",2,66.8,69.2,inactive
"Gimap8 (GTPase, IMAP family member 8)",3,61.7,55.5,inactive
Slc16a9,1,59.7,64.3,inactive
Slc16a9,2,68.7,57.9,inactive
Slc16a9,3,47.8,68.2,inactive
Nol3 (nucleolar protein 3 (apoptosis repressor with CARD domain)),1,111,108,inactive
Nol3 (nucleolar protein 3 (apoptosis repressor with CARD domain)),2,88.7,94.2,inactive
Nol3 (nucleolar protein 3 (apoptosis repressor with CARD domain)),3,69.8,68.4,inactive
Pex14 (peroxisomal biogenesis factor 14),1,93.2,132,inactive
Pex14 (peroxisomal biogenesis factor 14),2,93.6,64.3,inactive
Kif4 (kinesin family member 4),1,145,86.3,active
Kif4 (kinesin family member 4),2,94.4,95.2,inactive
4930578I06Rik (RIKEN cDNA 4930578I06 gene),1,80.4,76.8,inactive
4930578I06Rik (RIKEN cDNA 4930578I06 gene),2,77.2,51.9,inactive
4930578I06Rik (RIKEN cDNA 4930578I06 gene),3,56.6,54.5,inactive
Stard3 (StAR related lipid transfer domain containing 3),1,80.1,83.5,inactive
Stard3 (StAR related lipid transfer domain containing 3),2,73.4,62.4,inactive
Stard3 (StAR related lipid transfer domain containing 3),3,67.4,66.5,inactive
"Serpini2 (serine (or cysteine) peptidase inhibitor, clade I, member 2)",1,62.2,59.8,inactive
"Serpini2 (serine (or cysteine) peptidase inhibitor, clade I, member 2)",2,77.7,83.2,inactive
"Serpini2 (serine (or cysteine) peptidase inhibitor, clade I, member 2)",3,52.7,92.7,inactive
Cd14 (CD14 antigen),1,104,87.3,inactive
Cd14 (CD14 antigen),2,59.7,57.3,inactive
Cd14 (CD14 antigen),3,78.9,61.7,inactive
Klc1 (kinesin light chain 1),1,100,72.3,inactive
Klc1 (kinesin light chain 1),2,60.6,67,inactive
Klc1 (kinesin light chain 1),3,65.5,58.6,inactive
Puf60 (poly-U binding splicing factor 60),1,70.9,87.3,inactive
Puf60 (poly-U binding splicing factor 60),2,70.6,68.6,inactive
Puf60 (poly-U binding splicing factor 60),3,112,54,inactive
